The list does not hold the whole screen: it is rich in T/C values a quarter to a half above the control, in often repeated tests (any T/C) and in doses without a T/C. Further doses and runs are listed elsewhere. T/C: endpoint of the treated group in % of that of the vehicle group. Some entries give survivors of the animals treated and no T/C: the source files T/C as zero there, which appears to mark a toxic dose or a test without result, not a measured value. Some doses without a T/C left all or most animals alive at the check, yet need not have been tolerated: the source hardly ever lists a survival T/C far under the control, and the zero likely stands for such cases as well. Survivors were counted at the toxicity check, usually on the fifth day, unless a day is given; later deaths do not show. Schedule codes are those of the source, taken here to give the interval after Q, in days (D) or hours (H), and the number of doses after X. Brackets with × count equal records among those shown. Some doses were run more than once; the results are listed from low to high. Where survival is the endpoint, this PubChem deposit counts one and a half times the control or more as active, and values a quarter to a half above the control carry no call in these data; other NCI protocols may use other cut-offs. Some T/C values carry the count of animals alive at the toxicity check (mostly the fifth day); where none is given, no animal had died by that day.
Tested on: P388 leukemia ip, CD2F1 mice, survival T/C
Assay: NCI In Vivo Anticancer Drug Screen. Data for tumor model P388 Leukemia (intraperitoneal) in CD2F1 (CDF1) mice
Details: T/C endpoint: median survival time, higher T/C = longer survival
[1] = dose: 8.0 mg/kg/injection, schedule: Q01DX009 (ip), vehicle: water

## N[C@@H](Cc1ccc(N(CCCl)CCCl)cc1)C(=O)O
dose: 0.06 mg/kg/injection, schedule: Q01DX009 (ip), vehicle: saline
  T/C: 133 % of control
dose: 0.13 mg/kg/injection, schedule: Q01DX009 (ip), vehicle: saline
  T/C: 139 % of control
dose: 0.25 mg/kg/injection, schedule: Q01DX009 (ip), vehicle: suspension in saline
  T/C: 126 % of control
dose: 0.5 mg/kg/injection, schedule: Q01DX005 (ip), vehicle: saline
  T/C: 126 % of control
dose: 0.5 mg/kg/injection, schedule: Q01DX009 (ip), vehicle: suspension in saline
  T/C: 138 % of control
dose: 0.5 mg/kg/injection, schedule: Q01DX009 (ip), vehicle: water
  T/C: 146, 149, 182, 188, 206 % of control
dose: 0.5 mg/kg/injection, schedule: Q04DX003 (ip), vehicle: saline
  T/C: 134 % of control
dose: 0.75 mg/kg/injection, schedule: Q01DX009 (ip), vehicle: Klucel (hydroxypropylcellulose) (HPC)
  T/C: 137 % of control
dose: 1.0 mg/kg/injection, schedule: Q01DX005 (ip), vehicle: saline, evaluated on day 20
  T/C: 191 % of control
dose: 1.0 mg/kg/injection, schedule: Q01DX005 (ip), vehicle: saline, evaluated on day 30
  T/C: 180 and 187 % of control
dose: 1.0 mg/kg/injection, schedule: Q01DX005 (ip), vehicle: saline, evaluated on day 45
  T/C: 156 % of control
dose: 1.0 mg/kg/injection, schedule: Q01DX009 (ip), vehicle: suspension in saline
  T/C: 137 % of control
dose: 1.0 mg/kg/injection, schedule: Q01DX009 (ip), vehicle: water
  T/C: 168, 177, 198, 219, 234 % of control
dose: 1.0 mg/kg/injection, schedule: Q03HX008 (ip), vehicle: saline, evaluated on day 50
  T/C: 180, 357, 454 % of control
dose: 1.0 mg/kg/injection, schedule: Q03HX008 (ip), vehicle: saline, evaluated on day 60
  T/C: 190 and 245 % of control
dose: 1.0 mg/kg/injection, schedule: Q04DX003 (ip), vehicle: saline
  T/C: 145 % of control
dose: 1.25 mg/kg/injection, schedule: Q04DX003 (ip), vehicle: water
  T/C: 130 % of control
dose: 2.0 mg/kg/injection, schedule: Q01DX001 (ip), vehicle: suspension in saline
  T/C: 144 % of control
dose: 2.0 mg/kg/injection, schedule: Q01DX005 (ip), vehicle: saline, evaluated on day 20
  T/C: 192 % of control
dose: 2.0 mg/kg/injection, schedule: Q01DX005 (ip), vehicle: saline, evaluated on day 30
  T/C: 189 and 232 % of control
dose: 2.0 mg/kg/injection, schedule: Q01DX005 (ip), vehicle: saline, evaluated on day 45
  T/C: 197 % of control
dose: 2.0 mg/kg/injection, schedule: Q01DX009 (ip), vehicle: suspension in saline
  T/C: 142 % of control
dose: 2.0 mg/kg/injection, schedule: Q01DX009 (ip), vehicle: water
  T/C: 175, 201, 225, 254, 277 % of control
dose: 2.0 mg/kg/injection, schedule: Q03HX008 (ip), vehicle: saline, evaluated on day 50
  T/C: 357, 384, 454 % of control
dose: 2.0 mg/kg/injection, schedule: Q03HX008 (ip), vehicle: saline, evaluated on day 60
  T/C: 222 and 600 % of control
dose: 2.5 mg/kg/injection, schedule: Q04DX003 (ip), vehicle: saline, evaluated on day 30
  T/C: 202 and 216 % of control
dose: 2.5 mg/kg/injection, schedule: Q04DX003 (ip), vehicle: saline, evaluated on day 45
  T/C: 177 and 197 % of control
dose: 2.5 mg/kg/injection, schedule: Q04DX003 (ip), vehicle: saline, evaluated on day 50
  T/C: 216 % of control
dose: 2.5 mg/kg/injection, schedule: Q04DX003 (ip), vehicle: saline, evaluated on day 55
  T/C: 198 % of control
dose: 2.5 mg/kg/injection, schedule: Q04DX003 (ip), vehicle: water, evaluated on day 30
  T/C: 185, 199, 206, 210, 213, 227, 231, 236, 247, 252 % of control
dose: 2.5 mg/kg/injection, schedule: Q04DX003 (ip), vehicle: water, evaluated on day 35
  T/C: 203 and 212 % of control
dose: 2.5 mg/kg/injection, schedule: Q04DX003 (ip), vehicle: water, evaluated on day 40
  T/C: 142, 183, 188, 205 (2×), 222, 260 % of control
dose: 2.5 mg/kg/injection, schedule: Q04DX003 (ip), vehicle: water, evaluated on day 45
  T/C: 216 % of control
dose: 2.5 mg/kg/injection, schedule: Q04DX003 (iv), vehicle: saline
  T/C: 138 % of control
dose: 3.0 mg/kg/injection, schedule: Q01DX009 (ip), vehicle: Klucel (hydroxypropylcellulose) (HPC)
  survivor count: 6 of 6
dose: 3.75 mg/kg/injection, schedule: Q04DX003 (ip), vehicle: water, evaluated on day 30
  T/C: 178, 182, 185, 194, 197, 218, 221, 223, 226, 237, 241, 263 % of control
dose: 3.75 mg/kg/injection, schedule: Q04DX003 (ip), vehicle: water, evaluated on day 35
  T/C: 109 and 225 % of control
dose: 3.75 mg/kg/injection, schedule: Q04DX003 (ip), vehicle: water, evaluated on day 45
  T/C: 224 % of control
dose: 3.75 mg/kg/injection, schedule: Q04DX003 (ip), vehicle: water, evaluated on day 60
  T/C: 161 % of control
dose: 4.0 mg/kg/injection, schedule: Q01DX005 (ip), vehicle: saline, evaluated on day 20
  T/C: 192 % of control
dose: 4.0 mg/kg/injection, schedule: Q01DX005 (ip), vehicle: saline, evaluated on day 30
  T/C: 267 and 270 % of control
dose: 4.0 mg/kg/injection, schedule: Q01DX005 (ip), vehicle: saline, evaluated on day 45
  T/C: 346 % of control
dose: 4.0 mg/kg/injection, schedule: Q01DX009 (ip), vehicle: water
  T/C: 105, 120, 128, 207, 250 % of control
dose: 4.0 mg/kg/injection, schedule: Q03HX008 (ip), vehicle: saline
  survivor count: 9 of 10, 10 of 10, 6 of 6
dose: 4.17 mg/kg/injection, schedule: Q01DX009 (ip), vehicle: saline
  T/C: 130 % of control
dose: 5.0 mg/kg/injection, schedule: Q01DX001 (ip), vehicle: Klucel (hydroxypropylcellulose) (HPC)
  survivor count: 6 of 6
dose: 5.0 mg/kg/injection, schedule: Q01DX001 (ip), vehicle: water, evaluated on day 30
  T/C: 166, 168, 172, 187 % of control
dose: 5.0 mg/kg/injection, schedule: Q01DX001 (ip), vehicle: water, evaluated on day 35
  T/C: 218 % of control
dose: 5.0 mg/kg/injection, schedule: Q01DX001 (iv), vehicle: saline
  T/C: 142 % of control
dose: 5.0 mg/kg/injection, schedule: Q04DX003 (ip), vehicle: saline, evaluated on day 30
  T/C: 252 and 265 % of control
dose: 5.0 mg/kg/injection, schedule: Q04DX003 (ip), vehicle: saline, evaluated on day 45
  T/C: 213 and 305 % of control
dose: 5.0 mg/kg/injection, schedule: Q04DX003 (ip), vehicle: saline, evaluated on day 50
  T/C: 315 % of control
dose: 5.0 mg/kg/injection, schedule: Q04DX003 (ip), vehicle: saline, evaluated on day 60
  T/C: 234 and 284 % of control
dose: 5.0 mg/kg/injection, schedule: Q04DX003 (ip), vehicle: water, evaluated on day 30
  T/C: 117, 132, 150, 166, 210, 214, 225, 232, 242, 248, 250, 254, 260, 265, 272 % of control (2×)
dose: 5.0 mg/kg/injection, schedule: Q04DX003 (ip), vehicle: water, evaluated on day 35
  T/C: 206 and 257 % of control
dose: 5.0 mg/kg/injection, schedule: Q04DX003 (ip), vehicle: water, evaluated on day 40
  T/C: 199, 226, 250, 252 (2×), 329, 366 % of control
dose: 5.0 mg/kg/injection, schedule: Q04DX003 (ip), vehicle: water, evaluated on day 45
  T/C: 272 % of control
dose: 6.7 mg/kg/injection, schedule: Q01DX001 (ip), vehicle: saline
  T/C: 140 % of control
dose: 7.5 mg/kg/injection, schedule: Q04DX003 (ip), vehicle: saline, evaluated on day 45
  T/C: 276 and 394 % of control
dose: 7.5 mg/kg/injection, schedule: Q04DX003 (ip), vehicle: saline, evaluated on day 60
  T/C: 297 and 362 % of control
dose: 7.5 mg/kg/injection, schedule: Q04DX003 (ip), vehicle: water, evaluated on day 30
  T/C: 123, 190, 194, 223, 242, 254, 263, 264, 264 [5 of 6 alive], 270, 272, 291 % of control
dose: 7.5 mg/kg/injection, schedule: Q04DX003 (ip), vehicle: water, evaluated on day 35
  T/C: 250 and 309 % of control
dose: 7.5 mg/kg/injection, schedule: Q04DX003 (ip), vehicle: water, evaluated on day 45
  T/C: 300 and 308 % of control
dose: 7.5 mg/kg/injection, schedule: Q04DX003 (ip), vehicle: water, evaluated on day 60
  T/C: 211 % of control
dose: 8.0 mg/kg/injection, schedule: Q01DX005 (ip), vehicle: saline, evaluated on day 30
  T/C: 270 % of control
dose: 8.0 mg/kg/injection, schedule: Q01DX005 (ip), vehicle: saline, evaluated on day 45
  T/C: 110 % of control
dose: 8.0 mg/kg/injection, schedule: Q01DX005 (ip), vehicle: saline
  survivor count: 6 of 6 (2×)
dose: 8.0 mg/kg/injection, schedule: Q01DX009 (ip), vehicle: saline
  survivor count: 10 of 10
[1]
  T/C: 110 % of control
  survivor count: 6 of 6
dose: 8.0 mg/kg/injection, schedule: Q03HX008 (ip), vehicle: saline
  survivor count: 2 of 10, 2 of 6, 3 of 6, 9 of 10, 6 of 6
dose: 10.0 mg/kg/injection, schedule: Q01DX001 (ip), vehicle: Klucel (hydroxypropylcellulose) (HPC)
  survivor count: 6 of 6
dose: 10.0 mg/kg/injection, schedule: Q01DX001 (ip), vehicle: saline, evaluated on day 11
  T/C: 194 % of control
dose: 10.0 mg/kg/injection, schedule: Q01DX001 (ip), vehicle: saline, evaluated on day 30
  T/C: 248 % of control
dose: 10.0 mg/kg/injection, schedule: Q01DX001 (ip), vehicle: saline, evaluated on day 44
  T/C: 196 % of control
dose: 10.0 mg/kg/injection, schedule: Q01DX001 (ip), vehicle: saline, evaluated on day 45
  T/C: 171, 244, 245, 250, 270, 281, 306, 321, 420 % of control
dose: 10.0 mg/kg/injection, schedule: Q01DX001 (ip), vehicle: saline, evaluated on day 47
  T/C: 252 % of control
dose: 10.0 mg/kg/injection, schedule: Q01DX001 (ip), vehicle: saline, evaluated on day 60
  T/C: 195, 211, 245 [9 of 10 alive], 262, 276, 405, 560, 582 % of control
dose: 10.0 mg/kg/injection, schedule: Q01DX001 (ip), vehicle: water, evaluated on day 30
  T/C: 175, 176, 204, 235 % of control

— PubChem BioAssay AID330 (DTP/NCI, 2004)
